Source: patent US20110295343A1, “NEAR-INFRARED ELECTROMAGNETIC MODIFICATION OF CELLULAR STEADY-STATE MEMBRANE POTENTIALS” (priority 2008, published 2011)
Some of these results come from one statement about several compounds together.

Test system: bacterial isolate
Details: FIG. 21; potentiation with 870 nm/930 nm

With `CO[C@H]1/C=C/O[C@@]2(C)Oc3c(C)c(O)c4c(O)c(c(/C=N/N5CCN(C)CC5)c(O)c4c3C2=O)NC(=O)/C(C)=C\C=C\[C@H](C)[C@H](O)[C@@H](C)[C@@H](O)[C@@H](C)[C@H](OC(C)=O)[C@@H]1C` [Rifampin] as the molecule, how does the “near-infrared effect number Ne” value read?
The value was ≤ 1.
